## Results from one PubChem assay

From PubChem BioAssay record AID1918961 (NCATS, 2023).

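A myeloma cell line is exposed to compounds for two days, and live-cell ATP is measured by a glow read-out. Each compound was run as a dilution series from about 0.00003 to 92 µM. The value is the fitted AC50, the concentration giving half the maximal effect; a lower value means a more potent compound. Calls follow the NCATS curve-class score: active scores 40–100, while inconclusive scores 1–39 cover weak, poorly fitted, top-dose-only or opposite-direction curves.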

Values are in nM. Every entry below has the call inconclusive. Only part of the assay is shown, chiefly results filed as inconclusive. Potencies fitted to partial, single-point or poorly fitting curves are rough. The first word of each remark tells which way the curve ran; it can be opposite to the aim of the assay. Activity scores are not listed here.

structure,potency (nM),curve as filed
O=S(=O)(O)c1ccc2cc(N=Nc3cc(S(=O)(=O)O)c4cccnc4c3O)ccc2c1,20930,"rising, partial curve, poor fit"
FC(F)(F)c1ccc(Nc2nc3ccc(Oc4ccnc(-c5ncc(C(F)(F)F)[nH]5)c4)cc3[nH]2)cc1,26350,"cytotoxic, partial curve, poor fit"
CCCCc1nc2cc(C=CC(=O)NO)ccc2n1CCN(CC)CC,16.6,"cytotoxic, full curve, poor fit"
Nc1nc(N)c2nc(CNc3ccc(C(=O)NC(CCC(=O)O)C(=O)O)cc3)cnc2n1 (configuration not stated),2348,"cytotoxic, partial curve, poor fit"
CC[C@@]1(O)C(=O)OCc2c1cc1n(c2=O)Cc2cc3cc(O)ccc3nc2-1,37221,"rising, partial curve, poor fit"
CC(C)c1cc(C(=O)N2Cc3ccc(CN4CCN(C)CC4)cc3C2)c(O)cc1O,33.2,"cytotoxic, full curve, poor fit"
OC1CCC(Nc2ncc3nc(Nc4c(F)cc(F)cc4F)n([C@@H]4CCOC4)c3n2)CC1 (some centres not stated),6619,"cytotoxic, partial curve, poor fit"
C[C@H](CCC(=O)O)[C@H]1CCC2C3C[C@H](O)[C@@H]4C[C@H](O)CC[C@]4(C)C3CC[C@@]21C (some centres not stated),331.7,"rising, full curve, poor fit"
CC1(C)Cc2c(-c3ccccc3)c(-c3ccc(Cl)cc3)c(CC(=O)O)n2C1,833.3,"cytotoxic, full curve, poor fit"
CCn1c(-c2nonc2N)nc2cncc(CNC3CCNCC3)c21,37221,"rising, partial curve, poor fit"
CCOC(=O)[C@H](CCc1ccccc1)N[C@@H](C)C(=O)N1[C@@H](C(=O)O)C[C@H]2CCC[C@@H]21,2348,"cytotoxic, full curve, poor fit"
COC[C@H](NC(=O)c1cnc(C)s1)C(=O)N[C@@H](COC)C(=O)N[C@@H](Cc1ccccc1)C(=O)[C@@]1(C)CO1,33173,"rising, partial curve, poor fit"
CC1COC2(CCN(c3nc(=O)c4cc(C(F)(F)F)cc([N+](=O)[O-])c4s3)CC2)O1 (configuration not stated),2.1,"cytotoxic, full curve, poor fit"
CC(C)n1cnc2c(NCCc3ccc(O)cc3)nc(-c3csc4ccccc34)nc21,37221,"cytotoxic, partial curve, poor fit"
CCCCCCNC(=O)n1cc(F)c(=O)[nH]c1=O,20.9,"cytotoxic, full curve, poor fit"
CN1C(=O)C(Cc2c[nH]c3ccccc23)NC1=S (configuration not stated),3.3,"cytotoxic, full curve, poor fit"
Cc1cc2c(C(C)C)c(O)c(O)c(C=O)c2c(O)c1-c1c(C)cc2c(C(C)C)c(O)c(O)c(C=O)c2c1O,37221,"rising, partial curve, poor fit"
COc1ccc(-n2nc(C(N)=O)c3c2C(=O)N(c2ccc(N4CCCCC4=O)cc2)CC3)cc1,5258,"rising, partial curve, poor fit"
CC(C)C(=O)Nc1ccc([N+](=O)[O-])c(C(F)(F)F)c1,23484,"cytotoxic, partial curve, poor fit"
NC[C@H](O)c1ccc(O)c(O)c1,11770,"rising, full curve, poor fit"
O=C(CCCCCCC(=O)Nc1ccc([C@H]2O[C@@H](CSc3nc(-c4ccccc4)c(-c4ccccc4)o3)C[C@@H](c3ccc(CO)cc3)O2)cc1)NO,935,"rising, full curve, poor fit"
Cc1ccc(NC(=O)c2cccc(N(C)C)c2)cc1NC(=O)c1ccc(O)cc1,1177,"cytotoxic, full curve, poor fit"
CN(C)c1ccc(C2Nc3ccc4ccccc4c3C3=C2C(=O)CC(C)(C)C3)cc1Br (configuration not stated),11770,"rising, partial curve, poor fit"
Cn1cc(-c2ccc3nnc(C(F)(F)c4ccc5ncccc5c4)n3n2)cn1,11770,"cytotoxic, partial curve, poor fit"
C[C@H](NC(=O)C(C#N)=Cc1cccc(Br)n1)c1ccccc1,4176,"cytotoxic, full curve, poor fit"
CCn1c(C(=O)N(C2CC2)C2CC2)cc2c3c(ncn3C)c(Nc3cc(C)n(C)n3)nc21,2957,"cytotoxic, full curve, poor fit"
NC(=O)c1ccc(-c2nc(-c3ccc4c(c3)OCCO4)c(-c3ccccn3)[nH]2)cc1,8333,"cytotoxic, partial curve, poor fit"
NNC(=O)c1ccncc1,37221,"cytotoxic, single point"
Nc1cccc2c1C(=O)N(C1CCC(=O)NC1=O)C2=O (configuration not stated),33173,"rising, single point"
CC[C@]12C=CCN3CC[C@@]4(c5cc([C@@]6(C(=O)OC)C[C@H]7C[C@@H](C(C)(F)F)CN(Cc8c6[nH]c6ccccc86)C7)c(OC)cc5N(C)[C@H]4[C@@](O)(C(=O)OC)[C@H]1OC(C)=O)[C@@H]32,37221,"rising, partial curve, poor fit"
O=C1Nc2ccc(Cl)cc2C(C#CC2CC2)(C(F)(F)F)O1 (configuration not stated),37221,"cytotoxic, single point"
CC1(C)C(N(O)C(=O)Nc2ccc(Cl)cc2)N(c2ccc(Cl)cc2)C(=O)N1CC(=O)NN=CC=Cc1ccc([N+](=O)[O-])o1 (configuration not stated),33173,"rising, partial curve, poor fit"
COc1ccccc1[C@H](c1cccc2ccccc12)[C@@](C)(C#N)C(=O)N1CCC(c2cccc(C(F)(F)F)c2)CC1,1482,"cytotoxic, full curve, poor fit"
CN(C)c1ccc(-c2nc3ncc(Cl)c(N4CCN(CC(=O)Nc5nccs5)CC4)c3[nH]2)cc1,26350,"rising, partial curve, poor fit"
COc1ccc(S(=O)(=O)Nc2cccnc2Nc2ccc(O)cc2)cc1,11770,"rising, full curve, poor fit"
Cc1cc(NC(=O)Nc2ccc(N(C)C)cc2)c2cc(F)cc(F)c2n1,33173,"rising, partial curve, poor fit"
C[C@@H]1CC[C@@]2(OC1)OC1CC3C4CC=C5CC(O)CCC5(C)C4CCC3(C)C1[C@@H]2C (some centres not stated),1482,"rising, full curve, poor fit"
Cc1cnc(Nc2ccc(CN3CCOCC3)cc2)nc1Nc1cccc(S(=O)(=O)NC(C)(C)C)c1,5.3,"cytotoxic, full curve, poor fit"
O=C(CO)N1CCC(c2[nH]nc(-c3ccc(Cl)cc3)c2-c2ccncn2)CC1,37221,"rising, partial curve, poor fit"
Cn1c(N2CCCCS2(=O)=O)nc(C(=O)NCc2ccc(F)cc2)c(O)c1=O,4176,"cytotoxic, full curve, poor fit"

Repeated from the top, 4 entries:

- O=S(=O)(O)c1ccc2cc(N=Nc3cc(S(=O)(=O)O)c4cccnc4c3O)ccc2c1 | potency 20930 nM (rising, partial curve, poor fit)
- FC(F)(F)c1ccc(Nc2nc3ccc(Oc4ccnc(-c5ncc(C(F)(F)F)[nH]5)c4)cc3[nH]2)cc1 | potency 26350 nM (cytotoxic, partial curve, poor fit)
- CCCCc1nc2cc(C=CC(=O)NO)ccc2n1CCN(CC)CC | potency 16.6 nM (cytotoxic, full curve, poor fit)
- Nc1nc(N)c2nc(CNc3ccc(C(=O)NC(CCC(=O)O)C(=O)O)cc3)cnc2n1 (configuration not stated) | potency 2348 nM (cytotoxic, partial curve, poor fit)